Patent US5595999A, “Guanidine derivatives” (Hoffmann-La Roche Inc., priority 1990, dated 1997)
At least one compound was matched to its structure with a doubt left.

Molecular target: trypsin
Assay: Inhibition of amidolytic activity of trypsin (chromogenic substrate S-2251)
Format: biochemical
Details: S-2251, 200 and 750 μM final concentration, pH 7.8, room temperature
Protocol: A differential inhibition of thrombin and other serine proteases by the above compounds is desirable in order to obtain compounds having as high a specificity as possible and at the same time to avoid possible side-effects.
Specific chromogenic peptide substrates can be used to determine the inhibition of the catalytic activity of the above proteases. The inhibition of the amidolytic activity of thrombin and trypsin by the above guanidines was determined as described hereinafter.
The measurements were carried out on microtiter plates at room temperature. For this, in each well of the plate 150 μl of buffer (50 mM Tris, 100 mM NaCl, 0.1% polyethylene glycol; pH 7.8) were mixed with 50 μl of the inhibitor dissolved in DMSO and diluted in the buffer, and 25 μl of human thrombin (0.5 nM final conc.) were added. After incubation for 10 minutes, the reaction was started by the addition of chromogenic substrate S-2238 (H-D-Phe-Pip-Arg-paranitroaniline from Kabivitrum; 10 or 50 μm final conc.) and the hydrolysis of the substrate was followed spectrophotometrically on a kinetic microliter plate reader for 5 minutes. After graphical presentation of the inhibition curves, the Ki values were determined according to the method described in Biochem. J. 55, 1955, 170-171. […]

| Compound | Ki [nM] |
| --- | --- |
| N=C(N)N1CCC[C@@H](CNC(=O)[C@@H](Cc2ccc3ccccc3c2)NS(=O)(=O)c2ccc(I)cc2)C1 [Example 17f, (R)-N-[(S)-1-Amidino-3-piperidinylmethyl]-α-(p-iodobenzenesulfonamido)-2-naphthylpropionamide] | 18300 |
| N=C(N)N1CCCC(CNC(=O)[C@@H](CC(=O)c2ccccc2N)NS(=O)(=O)c2ccc3ccccc3c2)C1 (stereo partly drawn) [Example 18f, (R)-N-[(RS)-1-Amidino-3-piperidinylmethyl]-3-(o-aminobenzoyl)-2-(naphthylsulfonamido)propionamide] | 18800 |
